Measured values from ChEMBL document CHEMBL5120843, “Structure and Antimicrobial Activity of Rare Lactone Lipids from the Sooty Mold (Scorias spongiosa)” (J Nat Prod, 2022).
Values after ≈ are worked out from the molar mass of the structure shown.

Test system: Candida albicans
Assay: microbe, parasite or virus in culture
Details: ATCC 90028

**Q.** With `C[C@@H]1[C@H](O)[C@@H](C)/C=C/C=C/C=C/C=C/C=C/C=C/C=C/[C@H](O[C@@H]2O[C@H](C)[C@@H](O)[C@H](N)[C@@H]2O)C[C@@H]2O[C@](O)(C[C@@H](O)C[C@@H](O)[C@H](O)CC[C@@H](O)C[C@@H](O)CC(=O)O[C@H]1C)C[C@H](O)[C@H]2C(=O)O` [AMPHOTERICIN B] as the molecule, how does the MIC read?
**A.** The MIC was 0.63 µg/mL (≈ 0.682 µM).
